In paper PMC9118164:
Results are given in words; binding and its absence hold for the method and conditions named. In cells and extracts the contact can be indirect. Some entries that bind do so weakly or less than the wild type. Tags and fused reporters may be left off the sequences shown.

Molecular target: T1, Chl1-Flag (Schizosaccharomyces pombe) (UniProt O14147)
T1 sequence: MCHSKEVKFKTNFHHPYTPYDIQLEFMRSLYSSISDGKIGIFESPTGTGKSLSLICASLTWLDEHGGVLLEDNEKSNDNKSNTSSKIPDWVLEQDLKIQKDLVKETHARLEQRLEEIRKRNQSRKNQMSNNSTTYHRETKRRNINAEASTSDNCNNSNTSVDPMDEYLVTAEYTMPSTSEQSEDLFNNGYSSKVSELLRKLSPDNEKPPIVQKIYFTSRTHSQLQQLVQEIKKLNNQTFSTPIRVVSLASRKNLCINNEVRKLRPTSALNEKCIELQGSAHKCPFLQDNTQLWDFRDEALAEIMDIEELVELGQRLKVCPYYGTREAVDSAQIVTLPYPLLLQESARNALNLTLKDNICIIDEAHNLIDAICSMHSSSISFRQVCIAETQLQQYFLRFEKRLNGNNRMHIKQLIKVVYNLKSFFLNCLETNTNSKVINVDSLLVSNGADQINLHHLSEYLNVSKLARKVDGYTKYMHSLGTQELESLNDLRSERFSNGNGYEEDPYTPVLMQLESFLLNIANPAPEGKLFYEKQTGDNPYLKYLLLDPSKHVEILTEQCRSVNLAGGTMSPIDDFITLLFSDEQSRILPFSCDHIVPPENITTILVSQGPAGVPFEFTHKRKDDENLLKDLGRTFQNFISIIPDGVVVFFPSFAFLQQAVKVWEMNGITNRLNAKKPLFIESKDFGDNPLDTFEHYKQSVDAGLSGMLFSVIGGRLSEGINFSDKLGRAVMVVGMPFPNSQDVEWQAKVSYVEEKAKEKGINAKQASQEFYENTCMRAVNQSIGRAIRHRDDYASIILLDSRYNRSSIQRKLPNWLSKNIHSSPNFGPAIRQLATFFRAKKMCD
Experiment: co-IP; lysates of S. pombe strains coexpressing Chl1-Flag and Ssb1-Myc or Ssb2-Myc from native loci; immunoprecipitated with anti-Flag resin, western blot with anti-myc antibody

B1: Ssb1-Myc (protein, UniProt Q92372 1-609)
chain: MAERLSVGALRIINTSDASSFPPNPILQVLTVKELNSNPTSGAPKRYRVVLSDSINYAQSMLSTQLNHLVAENKLQKGAFVQLTQFTVNVMKERKILIVLGLNVLTELGVMDKIGNPAGLETVDALRQQQNEQNNASAPRTGISTSTNSFYGNNAAATAPAPPPMMKKPAAPNSLSTIIYPIEGLSPYQNKWTIRARVTNKSEVKHWHNQRGEGKLFSVNLLDESGEIRATGFNDQVDAFYDILQEGSVYYISRCRVNIAKKQYTNVQNEYELMFERDTEIRKAEDQTAVPVAKFSFVSLQEVGDVAKDAVIDVIGVLQNVGPVQQITSRATSRGFDKRDITIVDQTGYEMRVTLWGKTAIEFSVSEESILAFKGVKVNDFQGRSLSMLTSSTMSVDPDIQESHLLKGWYDGQGRGQEFAKHSVISSTLSTTGRSAERKNIAEVQAEHLGMSETPDYFSLKGTIVYIRKKNVSYPACPAADCNKKVFDQGGSWRCEKCNKEYDAPQYRYIITIAVGDHTGQLWLNVFDDVGKLIMHKTADELNDLQENDENAFMNCMAEACYMPYIFQCRAKQDNFKGEMRVRYTVMSINQMDWKEESKRLINFIESAQ
B1 was tested, and the binding was “binds”.

B2: Ssb2-Myc (protein, UniProt Q92373 1-279)
chain: MAYDAFGKPGYGPDFNSAFSPGMGGGAGFNEYDQSSQPSVDRQQGAGNKLRPVTIKQILNASQVHADAEFKIDGVEVGQVTFVGVLRNIHAQTTNTTYQIEDGTGMIEVRHWEHIDALSELATDTYVRVYGNIKIFSGKIYIASQYIRTIKDHNEVHFHFLEAIAVHLHFTQKANAVNGANAPGYGTSNALGYNNISSNGAANSLEQKLAEYSLTPAQMTVMQAIHSAPETNEGVHVRQLAQSVGPGIDLTAVTDFLQQEGIIYTTIDENHFKSVLQDQ
B2 was tested, and the binding was “binds”.
